Test results reported in publication doi:10.1101/2024.01.10.574961.
These are yes or no findings as the source states them, for the method shown. For part of these data: In cells and extracts the contact can be indirect. Some entries that bind do so weakly or less than the wild type. For part of these data: Tags and fused reporters may be left off the sequences shown.

B1: pGAD-tea4 (pGR106) (protein, UniProt O60132 1-821)
chain: MLHMNSASSADSMEIMESHFDPTQQNDSTIIESRYSPEEYLEQSFEIQRIISGENSEPQTVASQEISDSQEEDTTLTSSQFEDCGTEYNEVVEDDEFRSEDEDDFMDEEEEYALYEAELSSSPSIHEEVIDCNFVHAIRGFEATVEGQVDATKGDMMILLDDSNSYWWLVKMCKNLAIGYLPAEYIETPSERLARLNKYKNSETSNSQQSVTLPPLDIVEKTLEAPSPNFRIKRVTFTCSSNSSDDEMDSENDYEAMVNRTVAENGLEIEFSDSSDSSLSAEYRSESEDHVTDSPAYVDLTELEGGFNQFNSTSFQSTSPLGLEIVETEINGSSTTADSKNSHSPYSKFSSAYPDAENSNISKINISIAGNKELYGNATQSDPSLYSTWIANKHKTASSATVDSPLRRSLSVDAMQSNASFSSYSSTSNTDKSLRPSSYSAVSESSNFTHDVSRDNKEISLNAPKSIIVSQSDSFDTSNVTQDAPNDVEKEPISGQMPNNLSVQSLKQLEVYPIRHSVSIEMPSEKLLSPRLYSSSTPSSPTKGFQKDDEEDSENRKQADKVELSPSSLLRQMSLPVDSSSQSDAQCTTSSVYITAERKAFSQSSIDLSTLSNHHVNNEINRRSFAGGFTSLADELSEMRELLHESPAPLECNEEMVIPTPELDASSAIPSSSISHDEDLLPRKNTEESTSSSSFSSLITSPASLQYDENPFKQSVVAELNNNSSSVPFVDSAHASDIHAYDNDHVSTKNKEFNRRLREFILDPDSLSGLYWSVKSAGVRASRRVSRNIEGESVSSDLDDIFANVLKGLSDEMASLLNTNR
B2: Rgf1-GFP (protein, UniProt Q9Y7U6 1-1334)
chain: MDYRHPNALGVNESSRAYEEIFGAPRKREPARTVSTPAFMEPAPVSKKPLPPPTRRLPRKPLPFRSTSLQPPSSQPPAPPTHQREASPVKNIEHSESFPSVFGTSNNHQIVPLTLKDGNDFGALYASLNTTPHFPQVSNHAPNNSNSPSLTWHTSSGDDSNQNPFFVRRQSQSSTSPVSDSVDENLLSAVSSVTESVETNLHLDQNYPYGSPVRSSKNPFLSSNSRLPTDDSSHTVGSHSFTSGTHPPIVSSNSAFTLPNAVTPAAQAPLIRSVSEYPANVSPPAQSLQLPKSTSNPADLHLSIASASSHKNIFSGLDVFSNVFHGPSTTLRDREHDMRNRSFDHSTLAHYEAVKQQRLGVEPTARSFTLSSYKSRASGNSLINDRSSTTTPTFVNSEASSPVHKNKRRRRIYAALLSRVASELLDRLQLGDITKDGLIYSNAFTGDHAVTVLMGIIHTSDRNLALLVGRSLDAQKFIHDVTYDHRLRDSHREIYQLQGTGYRPFLRANDNASINNKNHHKELEDNESGTRISPSTLGDTSFPNGIFTLLTHCYSPTCAKDHPCYSISCPRRLEQQHRLFAKMRANTEQSSSLAFDDKEQKLWIHSVPQEIAYSVSDRERKRQEVICEVIYTERDFVKDLEYLRDYWIKPLWASSCIPERKKEKFIRTVFLNALEVQAVNSKLAEALTKRQNYKPIVDNIADIFLEHVPKFEPFIRYGAGQLYGKYEFEKEKSSNPAFAKFVSDVERLKESRKLELNGYLTKPTTRLARYPLLLEAVLKYTDEGNPDKQDIPKVINIVRGFLSRLNVESGKAENKFNLFHLNQQLVFKPGEHYDLHLLDANRQLIFKGPLKKRSAGSTSSESASDVTLFLFDHALLIVKPKTINKRELLKVFQRPIPLLLLQLFLVDDNGLRIPYSSKQQLAAVSKAANGKPPSRFYPFSLQLLGRRGYEITLYATTEVSRDKWLEHIDNQQTLLQHRNQWFESVTICSNFFVGDNKVNAIGVYDSGRRLLYGTDTGVYVSLRKANSPLQFKPVRALNIPNISQLEVIEEYSLLLLLSDKVLYSYPLEMIDADTTQAPKKARKVSGHTTFFRVGICLGKVLVCAVKSSVLSATIKVFEPVTNYSKTRNMPSLKKFLTVNQDPLRIVKELYIPTESTSVHFLKNKLCVGCTRGFEVVSLDNLETQSLLDPADTSLEFVEKKENVKPIAIYRMNGGEFLLCYSQFAFYVNRDGWRSRPTWFVVWEGSPQNFALSYPYILAFEPTFIEIRHVETSELIHVISGRNIRLLADGRGKLGDGGEIFYACDQRGENCETSVVCSLRLTSAAAHAKEQHVDK
B3: pGAD-tea1 (pGR135) (protein, UniProt P87061 1-1147)
chain: MSFLFKRNKGSAHKPTKPNFSKTSTTPSTSQLKHSHESNVKMSTSTVTEHRKKPTGSGSHITASPWSKLTVRGSSNVLPRYSHASHLYAEGGQEIYIFGGVASDSQPKNDLWVLNLATSQFTSLRSLGETPSPRLGHASILIGNAFIVFGGLTNHDVADRQDNSLYLLNTSSLVWQKANASGARPSGRYGHTISCLGSKICLFGGRLLDYYFNDLVCFDLNNLNTSDSRWELASVVNDPPPARAGHVAFTFSDKLYIFGGTDGANFFNDLWCYHPKQSAWSKVETFGVAPNPRAGHAASVVEGILYVFGGRASDGTFLNDLYAFRLSSKHWYKLSDLPFTPSPRSSHTLSCSGLTLVLIGGKQGKGASDSNVYMLDTSRFRLGSVPTTSGRQRNTSFFSNSTGNTNPSAFNGLLTSSRIPSYNGSKVRSTSHPSRQQYIGSSNSRFNTRHQTISTPVSGRASNDLPSPVVPTRSNSSSILQPSYNLNSHSSDRRNTNDDDQSSLNSQQLSNQAKAQGEVSPTLSFVPSSHSMEQGNGSVASANNAQSEAATRSINSISEVSEVRFPEQSSVKTVDERKSLDGRITSVTLETLVEKYSELSKQQIVEWFKSKLYEILRDSASKIDSLTEKLKVANAEKNAALCEAALEKVPLAKHNKLSDGTFSTPDKENVQSTNDAHIMQENFSLHKALEVMRETSSDLDKQLKDATASQKELIVQTSSFQKELVEERERHNAISKRLQEIESLYRDRELLVTNLEDQLVDQTVTINKFAFERDQFRERSMGFENTIKDLTRKMEATDMLNVSLHESLRSVQTENSELVTEMALLKAELVKKQAIIDANANIYDKLTADHTNYETVSADINQNLKETLDKLLNGSSDFKNNEIELLHDQIRITNAKLEKREKLINASKYIEDTLRSEIQEAAEKVSNLEFSNFNLKEENSNMQLQLMKALEQRNTGAKQLVNLRMQLSTATSELDMLKLKLRTTALALEESPDDYSDILSILRADMSPFHDLHKQCGVLIDTLNGVKRGFGIFEKKFTDYHKFLENISDKLKSEEDTSLETPIHENQSIQSDQIKEVGEVLSAIKSLSDSVMLLKNQIDDLAKEKLPLSSSDDEKVNIKEKTDFMKLLVKSGLSNPPAKEPVHDNEN

Columns and labels:
[1] = biological target: T1, pGBK-rgf1 (pRZ97) (S. pombe) (UniProt Q9Y7U6); assay: two-hybrid
T1 sequence: B2 chain

GST-Tea4 (S. pombe) = biological target: T2, GST-Tea4 (S. pombe) (UniProt O60132); assay: pull-down
T2 sequence: B1 chain

Row | Binder | binding [1] | binding (GST-Tea4 (S. pombe))
1 | B1 | binds | –
2 | B2 | – | binds
3 | B3 | no binding | –
